The record followed here is article PMC5923425, “Structural analysis of human ARS2 as a platform for co-transcriptional RNA sorting” (Nature Communications, 2018).

These are yes or no findings as the source states them, for the method shown. Binding seen in cells or lysates may run through a third protein. These calls come from enrichment with a bait or labelling near it, and not all partners need be listed. Sequences can lack the tags named with a protein.

The chains are these.
B1: THOC1 (protein, UniProt Q96FV9 1-657)
chain: MSPTPPLFSLPEARTRFTKSTREALNNKNIKPLLSTFSQVPGSENEKKCTLDQAFRGILEEEIINHSSCENVLAIISLAIGGVTEGICTASTPFVLLGDVLDCLPLDQCDTIFTFVEKNVATWKSNTFYSAGKNYLLRMCNDLLRRLSKSQNTVFCGRIQLFLARLFPLSEKSGLNLQSQFNLENVTVFNTNEQESTLGQKHTEDREEGMDVEEGEMGDEEAPTTCSIPIDYNLYRKFWSLQDYFRNPVQCYEKISWKTFLKYSEEVLAVFKSYKLDDTQASRKKMEELKTGGEHVYFAKFLTSEKLMDLQLSDSNFRRHILLQYLILFQYLKGQVKFKSSNYVLTDEQSLWIEDTTKSVYQLLSENPPDGERFSKMVEHILNTEENWNSWKNEGCPSFVKERTSDTKPTRIIRKRTAPEDFLGKGPTKKILMGNEELTRLWNLCPDNMEACKSETREHMPTLEEFFEEAIEQADPENMVENEYKAVNNSNYGWRALRLLARRSPHFFQPTNQQFKSLPEYLENMVIKLAKELPPPSEEIKTGEDEDEEDNDALLKENESPDVRRDKPVTGEQIEVFANKLGEQWKILAPYLEMKDSEIRQIECDSEDMKMRAKQLLVAWQDQEGVHATPENLINALNKSGLSDLAESLTNDNETNS
B2: CPSF2 (protein, UniProt Q9P2I0 1-782)
chain: MTSIIKLTTLSGVQEESALCYLLQVDEFRFLLDCGWDEHFSMDIIDSLRKHVHQIDAVLLSHPDPLHLGALPYAVGKLGLNCAIYATIPVYKMGQMFMYDLYQSRHNTEDFTLFTLDDVDAAFDKIQQLKFSQIVNLKGKGHGLSITPLPAGHMIGGTIWKIVKDGEEEIVYAVDFNHKREIHLNGCSLEMLSRPSLLITDSFNATYVQPRRKQRDEQLLTNVLETLRGDGNVLIAVDTAGRVLELAQLLDQIWRTKDAGLGVYSLALLNNVSYNVVEFSKSQVEWMSDKLMRCFEDKRNNPFQFRHLSLCHGLSDLARVPSPKVVLASQPDLECGFSRDLFIQWCQDPKNSIILTYRTTPGTLARFLIDNPSEKITEIELRKRVKLEGKELEEYLEKEKLKKEAAKKLEQSKEADIDSSDESDIEEDIDQPSAHKTKHDLMMKGEGSRKGSFFKQAKKSYPMFPAPEERIKWDEYGEIIKPEDFLVPELQATEEEKSKLESGLTNGDEPMDQDLSDVPTKCISTTESIEIKARVTYIDYEGRSDGDSIKKIINQMKPRQLIIVHGPPEASQDLAECCRAFGGKDIKVYMPKLHETVDATSETHIYQVRLKDSLVSSLQFCKAKDAELAWIDGVLDMRVSKVDTGVILEEGELKDDGEDSEMQVEAPSDSSVIAQQKAMKSLFGDDEKETGEESEIIPTLEPLPPHEVPGHQSVFMNEPRLSDFKQVLLREGIQAEFVGGVLVCNNQVAVRRTETGRIGLEGCLCQDFYRIRDLLYEQYAIV
B3: CPSF3 (protein, UniProt Q9UKF6 1-684)
chain: MSAIPAEESDQLLIRPLGAGQEVGRSCIILEFKGRKIMLDCGIHPGLEGMDALPYIDLIDPAEIDLLLISHFHLDHCGALPWFLQKTSFKGRTFMTHATKAIYRWLLSDYVKVSNISADDMLYTETDLEESMDKIETINFHEVKEVAGIKFWCYHAGHVLGAAMFMIEIAGVKLLYTGDFSRQEDRHLMAAEIPNIKPDILIIESTYGTHIHEKREEREARFCNTVHDIVNRGGRGLIPVFALGRAQELLLILDEYWQNHPELHDIPIYYASSLAKKCMAVYQTYVNAMNDKIRKQININNPFVFKHISNLKSMDHFDDIGPSVVMASPGMMQSGLSRELFESWCTDKRNGVIIAGYCVEGTLAKHIMSEPEEITTMSGQKLPLKMSVDYISFSAHTDYQQTSEFIRALKPPHVILVHGEQNEMARLKAALIREYEDNDEVHIEVHNPRNTEAVTLNFRGEKLAKVMGFLADKKPEQGQRVSGILVKRNFNYHILSPCDLSNYTDLAMSTVKQTQAIPYTGPFNLLCYQLQKLTGDVEELEIQEKPALKVFKNITVIQEPGMVVLEWLANPSNDMYADTVTTVILEVQSNPKIRKGAVQKVSKKLEMHVYSKRLEIMLQDIFGEDCVSVKDDSILSVTVDGKTANLNLETRTVECEEGSEDDESLREMVELAAQRLYEALTPVH
B4: THOC5 (protein, UniProt Q13769 1-683)
chain: MSSESSKKRKPKVIRSDGAPAEGKRNRSDTEQEGKYYSEEAEVDLRDPGRDYELYKYTCQELQRLMAEIQDLKSRGGKDVAIEIEERRIQSCVHFMTLKKLNRLAHIRLKKGRDQTHEAKQKVDAYHLQLQNLLYEVMHLQKEITKCLEFKSKHEEIDLVSLEEFYKEAPPDISKAEVTMGDPHQQTLARLDWELEQRKRLAEKYRECLSNKEKILKEIEVKKEYLSSLQPRLNSIMQASLPVQEYLFMPFDQAHKQYETARHLPPPLYVLFVQATAYGQACDKTLSVAIEGSVDEAKALFKPPEDSQDDESDSDAEEEQTTKRRRPTLGVQLDDKRKEMLKRHPLSVMLDLKCKDDSVLHLTFYYLMNLNIMTVKAKVTTAMELITPISAGDLLSPDSVLSCLYPGDHGKKTPNPANQYQFDKVGILTLSDYVLELGHPYLWVQKLGGLHFPKEQPQQTVIADHSLSASHMETTMKLLKTRVQSRLALHKQFASLEHGIVPVTSDCQYLFPAKVVSRLVKWVTVAHEDYMELHFTKDIVDAGLAGDTNLYYMALIERGTAKLQAAVVLNPGYSSIPPVFQLCLNWKGEKTNSNDDNIRAMEGEVNVCYKELCGPWPSHQLLTNQLQRLCVLLDVYLETESHDDSVEGPKEFPQEKMCLRLFRGPSRMKPFKYNHPQGFFSHR
B5: CPSF1 (protein, UniProt Q10570 1-1443)
chain: MYAVYKQAHPPTGLEFSMYCNFFNNSERNLVVAGTSQLYVYRLNRDAEALTKNDRSTEGKAHREKLELAASFSFFGNVMSMASVQLAGAKRDALLLSFKDAKLSVVEYDPGTHDLKTLSLHYFEEPELRDGFVQNVHTPRVRVDPDGRCAAMLVYGTRLVVLPFRRESLAEEHEGLVGEGQRSSFLPSYIIDVRALDEKLLNIIDLQFLHGYYEPTLLILFEPNQTWPGRVAVRQDTCSIVAISLNITQKVHPVIWSLTSLPFDCTQALAVPKPIGGVVVFAVNSLLYLNQSVPPYGVALNSLTTGTTAFPLRTQEGVRITLDCAQATFISYDKMVISLKGGEIYVLTLITDGMRSVRAFHFDKAAASVLTTSMVTMEPGYLFLGSRLGNSLLLKYTEKLQEPPASAVREAADKEEPPSKKKRVDATAGWSAAGKSVPQDEVDEIEVYGSEAQSGTQLATYSFEVCDSILNIGPCANAAVGEPAFLSEEFQNSPEPDLEIVVCSGHGKNGALSVLQKSIRPQVVTTFELPGCYDMWTVIAPVRKEEEDNPKGEGTEQEPSTTPEADDDGRRHGFLILSREDSTMILQTGQEIMELDTSGFATQGPTVFAGNIGDNRYIVQVSPLGIRLLEGVNQLHFIPVDLGAPIVQCAVADPYVVIMSAEGHVTMFLLKSDSYGGRHHRLALHKPPLHHQSKVITLCLYRDLSGMFTTESRLGGARDELGGRSGPEAEGLGSETSPTVDDEEEMLYGDSGSLFSPSKEEARRSSQPPADRDPAPFRAEPTHWCLLVRENGTMEIYQLPDWRLVFLVKNFPVGQRVLVDSSFGQPTTQGEARREEATRQGELPLVKEVLLVALGSRQSRPYLLVHVDQELLIYEAFPHDSQLGQGNLKVRFKKVPHNINFREKKPKPSKKKAEGGGAEEGAGARGRVARFRYFEDIYGYSGVFICGPSPHWLLVTGRGALRLHPMAIDGPVDSFAPFHNVNCPRGFLYFNRQGELRISVLPAYLSYDAPWPVRKIPLRCTAHYVAYHVESKVYAVATSTNTPCARIPRMTGEEKEFETIERDERYIHPQQEAFSIQLISPVSWEAIPNARIELQEWEHVTCMKTVSLRSEETVSGLKGYVAAGTCLMQGEEVTCRGRILIMDVIEVVPEPGQPLTKNKFKVLYEKEQKGPVTALCHCNGHLVSAIGQKIFLWSLRASELTGMAFIDTQLYIHQMISVKNFILAADVMKSISLLRYQEESKTLSLVSRDAKPLEVYSVDFMVDNAQLGFLVSDRDRNLMVYMYLPEAKESFGGMRLLRRADFHVGAHVNTFWRTPCRGATEGLSKKSVVWENKHITWFATLDGGIGLLLPMQEKTYRRLLMLQNALTTMLPHHAGLNPRAFRMLHVDRRTLQNAVRNVLDGELLNRYLYLSTMERSELAKKIGTTPDIILDDLLETDRVTAHF
B6: THOC3 (protein, UniProt Q96J01 1-351)
chain: MAVPAAAMGPSALGQSGPGSMAPWCSVSSGPSRYVLGMQELFRGHSKTREFLAHSAKVHSVAWSCDGRRLASGSFDKTASVFLLEKDRLVKENNYRGHGDSVDQLCWHPSNPDLFVTASGDKTIRIWDVRTTKCIATVNTKGENINICWSPDGQTIAVGNKDDVVTFIDAKTHRSKAEEQFKFEVNEISWNNDNNMFFLTNGNGCINILSYPELKPVQSINAHPSNCICIKFDPMGKYFATGSADALVSLWDVDELVCVRCFSRLDWPVRTLSFSHDGKMLASASEDHFIDIAEVETGDKLWEVQCESPTFTVAWHPKRPLLAFACDDKDGKYDSSREAGTVKLFGLPNDS
B7: CPSF7 (protein, UniProt Q8N684 1-471)
chain: MSEGVDLIDIYADEEFNQDPEFNNTDQIDLYDDVLTATSQPSDDRSSSTEPPPPVRQEPSPKPNNKTPAILYTYSGLRNRRAAVYVGSFSWWTTDQQLIQVIRSIGVYDVVELKFAENRANGQSKGYAEVVVASENSVHKLLELLPGKVLNGEKVDVRPATRQNLSQFEAQARKRECVRVPRGGIPPRAHSRDSSDSADGRATPSENLVPSSARVDKPPSVLPYFNRPPSALPLMGLPPPPIPPPPPLSSSFGVPPPPPGIHYQHLMPPPPRLPPHLAVPPPGAIPPALHLNPAFFPPPNATVGPPPDTYMKASAPYNHHGSRDSGPPPSTVSEAEFEDIMKRNRAISSSAISKAVSGASAGDYSDAIETLLTAIAVIKQSRVANDERCRVLISSLKDCLHGIEAKSYSVGASGSSSRKRHRSRERSPSRSRESSRRHRDLLHNEDRHDDYFQERNREHERHRDRERDRHH

The assay has as its target T1, EGFP–ARS2 wt (human) (UniProt Q9BXP5).
T1 sequence: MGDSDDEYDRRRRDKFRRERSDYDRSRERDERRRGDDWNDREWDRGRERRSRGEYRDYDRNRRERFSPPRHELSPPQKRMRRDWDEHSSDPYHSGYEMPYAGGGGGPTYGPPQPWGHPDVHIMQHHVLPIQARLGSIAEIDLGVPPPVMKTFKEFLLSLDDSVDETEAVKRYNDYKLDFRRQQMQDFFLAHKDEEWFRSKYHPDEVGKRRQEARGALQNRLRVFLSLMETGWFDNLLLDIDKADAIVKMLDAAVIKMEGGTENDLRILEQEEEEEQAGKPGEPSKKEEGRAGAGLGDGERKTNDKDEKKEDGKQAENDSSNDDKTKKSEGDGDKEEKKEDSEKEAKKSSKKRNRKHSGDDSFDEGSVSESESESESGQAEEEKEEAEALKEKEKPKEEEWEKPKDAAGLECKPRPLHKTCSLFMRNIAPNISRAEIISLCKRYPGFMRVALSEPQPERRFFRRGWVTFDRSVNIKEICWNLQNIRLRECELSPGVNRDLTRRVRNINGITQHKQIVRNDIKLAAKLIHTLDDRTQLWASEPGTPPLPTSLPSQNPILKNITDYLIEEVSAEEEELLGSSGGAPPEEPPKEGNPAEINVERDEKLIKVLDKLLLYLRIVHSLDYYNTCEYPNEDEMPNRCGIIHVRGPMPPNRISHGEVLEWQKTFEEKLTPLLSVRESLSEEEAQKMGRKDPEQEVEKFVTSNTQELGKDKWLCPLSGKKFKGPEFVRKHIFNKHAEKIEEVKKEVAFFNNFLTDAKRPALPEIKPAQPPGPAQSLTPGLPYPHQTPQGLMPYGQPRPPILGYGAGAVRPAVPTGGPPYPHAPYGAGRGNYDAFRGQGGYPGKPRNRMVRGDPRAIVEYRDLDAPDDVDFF
The assay is described as follows: affinity purification with mass spectrometry; EGFP-tagged ARS2 constructs expressed in HEK 293T/17, lysis in 20 mM HEPES pH 7.4, 120 mM NaCl, 0.1% Triton X-100 with RNase H, GFP-Trap beads, TMT labelling, LC–MS/MS; controls EGFP and pcDNA3.1.
For the molecule B1, the binding result is reported as “binds”.

Regarding B2, the binding result is reported as “binds”.

With B3, the binding result is “binds”.

Regarding B4, the binding result was “binds”.

Regarding B5, the binding result was “binds”.

B6: the binding result is recorded as “binds”.

B7: the binding entry is given as “binds”.
